Laboratory results: patent US20030170203A1
No constants are given. Whether binding was seen depends on the method and setting. In cells and extracts the contact can be indirect. Some binding calls cover weakened binding; strength is not graded here. For part of these data: Sequences can lack the tags named with a protein.

Chains of the proteins cited; added tags and fusions are not shown. Lines headed by an entry give the natural chain unless they say otherwise; changes in a name come on top. A line that says so, or that is headed by a name, gives the form on record, which may keep a tag or linker. Residues count along the entry.
UniProt P19438: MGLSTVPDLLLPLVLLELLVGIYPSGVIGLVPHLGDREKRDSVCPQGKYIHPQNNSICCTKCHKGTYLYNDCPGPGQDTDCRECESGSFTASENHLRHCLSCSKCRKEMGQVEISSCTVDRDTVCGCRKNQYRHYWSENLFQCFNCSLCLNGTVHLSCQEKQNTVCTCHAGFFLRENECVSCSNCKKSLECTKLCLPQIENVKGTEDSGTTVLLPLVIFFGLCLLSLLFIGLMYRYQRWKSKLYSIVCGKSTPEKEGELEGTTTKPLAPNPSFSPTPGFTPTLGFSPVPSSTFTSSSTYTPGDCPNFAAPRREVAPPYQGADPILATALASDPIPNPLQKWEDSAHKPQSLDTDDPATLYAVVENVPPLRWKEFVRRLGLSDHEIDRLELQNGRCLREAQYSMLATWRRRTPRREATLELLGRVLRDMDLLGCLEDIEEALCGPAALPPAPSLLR
Flag-epitope tagged TNFR-1: residues 30-455 of P19438
GST fusion of the cytoplasmic domain of TNFR-1: residues 233-455 of P19438

Key:
[1] = target: GST fusion of the cytoplasmic domain of TNFR-1 (UniProt P19438); experiment: GST pull-down of in vitro translated 35S-labeled protein, SDS-PAGE and autoradiography
[2] = target: T1, Flag-epitope tagged DR3 (human) (UniProt Q93038); experiment: co-immunoprecipitation with anti-Flag from transfected 293 cells, anti-myc immunoblot
T1 sequence: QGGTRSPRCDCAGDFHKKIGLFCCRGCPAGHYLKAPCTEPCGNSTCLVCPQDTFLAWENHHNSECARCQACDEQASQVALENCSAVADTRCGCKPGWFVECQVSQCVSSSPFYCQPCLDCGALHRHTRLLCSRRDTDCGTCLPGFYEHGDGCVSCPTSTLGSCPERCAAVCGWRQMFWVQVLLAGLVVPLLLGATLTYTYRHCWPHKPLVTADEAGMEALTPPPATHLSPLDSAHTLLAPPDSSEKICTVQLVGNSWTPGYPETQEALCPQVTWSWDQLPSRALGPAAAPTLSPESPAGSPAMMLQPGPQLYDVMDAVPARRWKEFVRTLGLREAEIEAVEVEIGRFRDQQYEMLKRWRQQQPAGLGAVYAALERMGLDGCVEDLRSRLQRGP

[3] = target: Flag-epitope tagged TNFR-1 (UniProt P19438); experiment: as above

binding [1]: binds
binding [2]: binds
binding [3]: binds
B1: TRADD (protein, UniProt Q15628 1-312, looked up, not shown: small tags and cut ends)
chain: MAAGQNGHEEWVGSAYLFVESSLDKVVLSDAYAHPQQKVAVYRALQAALAESGGSPDVLQMLKIHRSDPQLIVQLRFCGRQPCGRFLRAYREGALRAALQRSLAAALAQHSVPLQLELRAGAERLDALLADEERCLSCILAQQPDRLRDEELAELEDALRNLKCGSGARGGDGEVASAPLQPPVPSLSEVKPPPPPPPAQTFLFQGQPVVNRPLSLKDQQTFARSVGLKWRKVGRSLQRGCRALRDPALDSLAYEYEREGLYEQAFQLLRRFVQAEGRRATLQRLVEALEENELTSLAEDLLGLTDPNGGLA
